This note sets out measurements from PubChem BioAssay AID924 (National Center for Advancing Translational Sciences (NCATS), 2007).

Most of the hits are listed elsewhere, so they are rarer here than in the full data. Records with an inconclusive call do not appear. Calls of active or inactive are those of the source. Calls follow the shape of the dose curve; as a rule, active = well fitted cell-killing curve with a large enough effect; inconclusive = small, poorly fitted or top-dose-only effect; inactive = no such curve, though single readings can be large or run the other way.

This test in a line: qHTS Screen for Compounds that Selectively Target Cancer Cells with p53 Mutations: Cytotoxicity of p53ts Cells at the Permissive Temperature.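 Also: 0% = DMSO and -100% = full killing by reference compound; nearly all actives have a fitted effect of over 55% in size.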 The settings on record: H1299-p53A138V at 32C, ATP luminescence viability, 24 h; at 46.1 µM (top of the series) unless noted. The source says: NIH Chemical Genomics Center [NCGC] NIH Molecular Libraries Screening Centers Network [MLSCN] MLSCN Grant: 1 X01 MH079844-01 Assay Submitter (PI): Dr. SUN, YI, University of Michigan NCGC Assay Overview: Synthetic Lethal Screen for Compounds to Kill Cancer Cells with p53 Mutation. Tumor suppressor gene p53 serves as a major cellular barrier against tumorigenesis. […] The goal of this screening is to identify small molecule probes that selectively kill cancer cells with mutations in p53. This screening was carried out using two lines of H1299 lung cancer cells. […] Concentration-responses of all the compounds in the library collection were determined in qHTS using the cell lines and temperature conditions as above.
NCGC Assay Protocol Summary: Both the H1299-p53A138V and H1299-neo cell lines were provided by Dr.Yi Sun, a PI at the University Michigan. […] AC50 values were determined from concentration-response data modeled with the standard Hill equation. […] Detection; Luminescence; Viewlux plate reader Keywords: p53, synthetic lethal, cancer, cell viability, cytotoxicity, H1299 cell line, luminescence, MLSMR, MLSCN, NIH Roadmap, qHTS, NCGC
For `Nc1nc2ccc(OC(F)(F)F)cc2s1`, the activity change, negative = cytotoxicity is inactive: -19.8% [at 20.6 µM]. For `CCOC(=O)c1ccc(NC(=O)CSc2nc3c(c(=O)n2CC)SC(C)C3)cc1` (configuration not stated) the value was inactive: 48.9%.
